In publication PMC3275627:
These are yes or no findings as the source states them, for the method shown. Binding seen in cells or lysates may run through a third protein. Some binding calls cover weakened binding; strength is not graded here. Sequences can lack the tags named with a protein.

Biological target: T1, Set3-Myc fusion protein (S. pombe) (UniProt Q10362)
T1 sequence: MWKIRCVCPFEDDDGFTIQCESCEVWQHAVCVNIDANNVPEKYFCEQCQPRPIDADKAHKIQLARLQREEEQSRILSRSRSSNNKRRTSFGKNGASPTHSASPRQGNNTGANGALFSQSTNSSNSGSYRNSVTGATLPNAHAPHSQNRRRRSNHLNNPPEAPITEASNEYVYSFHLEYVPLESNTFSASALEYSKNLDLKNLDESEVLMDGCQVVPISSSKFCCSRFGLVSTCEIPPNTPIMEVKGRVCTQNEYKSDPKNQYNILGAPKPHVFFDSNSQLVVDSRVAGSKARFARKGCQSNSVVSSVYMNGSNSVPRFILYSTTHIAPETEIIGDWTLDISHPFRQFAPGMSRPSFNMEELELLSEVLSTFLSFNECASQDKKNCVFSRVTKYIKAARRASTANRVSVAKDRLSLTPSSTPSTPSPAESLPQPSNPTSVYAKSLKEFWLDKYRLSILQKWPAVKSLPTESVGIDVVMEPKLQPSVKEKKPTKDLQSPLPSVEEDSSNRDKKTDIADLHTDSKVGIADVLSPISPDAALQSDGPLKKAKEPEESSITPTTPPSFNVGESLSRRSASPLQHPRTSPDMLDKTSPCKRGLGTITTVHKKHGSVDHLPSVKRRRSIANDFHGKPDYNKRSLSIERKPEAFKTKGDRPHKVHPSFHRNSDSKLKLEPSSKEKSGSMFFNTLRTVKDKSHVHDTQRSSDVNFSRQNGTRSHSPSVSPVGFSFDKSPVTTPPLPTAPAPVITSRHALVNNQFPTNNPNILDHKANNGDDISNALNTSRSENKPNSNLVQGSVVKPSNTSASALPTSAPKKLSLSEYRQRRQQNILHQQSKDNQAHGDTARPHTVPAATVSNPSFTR
Experiment: co-IP; S. pombe cells expressing both tagged proteins, lysed under native conditions (1% IGEPAL CA630, 150 mM NaCl, 50 mM Tris-HCl pH 8.0); anti-Myc immunoprecipitation on Protein G Dynabeads, immunoblot with anti-HA (per results and legend)

B1: Hif2-HA fusion protein (protein, UniProt O74845 1-564)
chain: MDTNQVNYIIWRYLKECGYSHTKFAFERETGIQNLDKQWGSTCQVGALVEILQKGLQYVELEKHYVDNHSSNEEASKTSIDGESLVNENPCKLPFYLTVPHICETTLTKADSTNGFCEHNNSNDHQLKILQDKGSGSPSSPVMPFKDKIEKRDIDITMADESNVEKDPARPIAVYNSSPVTEITEIKQVTFTGGEDIKSDFFKVIPTKHPVTCADWRPLLQENYHVYEFSIGMTNATLASVSICEEQNDFKAKTDYCLQSSFDNQDITGVAWNNSGSFLAYAFFSGVIEIYDSHGSQILSFHNNKGPVLSLKWSGTDTYLAAGSADGTITLFDQLKQTQYSIDTLASSVLDIEWISFDEFVTSDVEGSLRVYKVDGKAPVSTVSHAHDNSIVALRYNLRISLLLTASSDTTVKLWSRGDAGAFECLHVFSFSSPVNCIDWNLREGTPILAVASNSIVSMYNAISLQQLAVFMRHTAPVSALSFSHNGRYLATGDTSGGVCIWSCKTAKLFKELGSDNSELIAVTNVLPEEQVNFLRWSFDDKDLLIGKQKKEIICCCDFLHDSL
  binding: binds
